# Test results published in patent EP4414363A1, “INDOLYLACETIC DERIVATIVES FOR USE IN THE TREATMENT OF NEURODEGENERATIVE DISEASES” (Miuli Pharma S.r.l., priority 2023, dated 2024).
# At least one structure is not confirmed: it was looked up by name or label, or the drawing left a doubt.
# System: iNOS
# Assay: Western blot of LPS-induced iNOS expression in microglia cells
# Assay type: cell-based, murine
# Conditions: BV2 microglial cells, LPS 100 ng/mL, compound 100nM, 24h
# Experimental: Human neuroblastoma SH-SY5Y cells (Cell bank Line Collection ICLC) and immortalized murine microglial BV-2 cell line were grown as monolayers in polystyrene dishes (12 or 6 wells plate) in Dulbecco's modified Eagle's medium (DMEM) with 10% (v/v) fetal bovine serum (FBS), L glutamine (2 mM), 1% penicillin (50 IU/ml) and streptomycin (50 µg/ml). Cells were grown in a humidified atmosphere containing 95% air and 5% CO2, and the medium was changed every two days. All experiments were conducted in cultures containing cells between the 4th and 8th passages.
# SH-SY5Y and BV-2 cells were plated with a confluence of 65.000 cell/mL. After 24 hours of cell seeding, medium was changed for 6h starvation in a medium containing 0% FBS. […]
# Cells were exposed to compounds or vehicle and, after 24 hours, have been analyzed for Western Blotting experiments or MTT assay.
# Western blot analysis was performed as previously described. Protein samples (50 µg) were analyzed on 8% subjected to SDS-polyacrylamide gel electrophoresis (SDS-PAGE) and electrotransferred onto Hybond ECL nitrocellulose paper (Amersham, Milan, Italy). […]
# Immunoreactive bands were detected using ECL (Amersham). The optical density of the bands (normalized for β-actin) was determined by Chemi-Doc Imaging System (Bio-Rad, Segrate, Italy).
smiles,measurement,value
"COc1ccc2c(c1)c(CC(=O)Oc1ccc(C(N)=S)cc1)c(C)n2C1CCN(C)CC1 [Compound IV, 4-carbamothioylphenyl-2-(5-Methoxy-2-methyl-1-(1-methylpiperidin-4-yl)-1H-indol-3-yl)acetate]",iNOS induction elicited by LPS,prevent iNOS induction
